These are yes or no findings as the source states them, for the method shown. Binding seen in cells or lysates may run through a third protein. A yes stands for co-enrichment or nearness to the bait. Other partners may have been found.

By UniProt entry, the sequences of proteins in these tests, tags left out. Where a name states a change or a piece, a line headed by the entry shows the natural chain unless it says otherwise. Chains listed by the source or under a name are the forms on record and can include a tag or linker.
His6-PACRG (Parkin co-regulated gene) (Q96M98, form named): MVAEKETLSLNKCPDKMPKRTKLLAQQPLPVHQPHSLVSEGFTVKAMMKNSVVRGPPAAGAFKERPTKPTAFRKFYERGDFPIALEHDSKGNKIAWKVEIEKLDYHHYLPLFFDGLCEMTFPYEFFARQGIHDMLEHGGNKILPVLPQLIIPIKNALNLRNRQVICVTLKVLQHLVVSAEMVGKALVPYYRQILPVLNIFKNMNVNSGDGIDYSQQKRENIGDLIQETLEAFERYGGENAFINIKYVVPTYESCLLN

Assay [1] deals with His6-GST-PACRG (human) (UniProt Q96M98). The experiment in a line: affinity purification with mass spectrometry; purified His6-tagged bait coupled to Ni2+-charged resin (2 h, 4 °C), incubated 2 h with supernatant of HEK293T cell lysate, washed three times with 5 mM imidazole; bound proteins identified by LC-MS/MS; controls: Ni2+-charged resin alone (for His6-PACRG) and His6-GST (for His6-GST-PACRG); only proteins found with both baits accepted; only the target purified.

Assay [2] concerns the target His6-PACRG (Parkin co-regulated gene) (human) (UniProt Q96M98). The description is as above.

B1: ALDH18A1 (protein, UniProt P54886 1-795)
chain: MLSQVYRCGFQPFNQHLLPWVKCTTVFRSHCIQPSVIRHVRSWSNIPFITVPLSRTHGKSFAHRSELKHAKRIVVKLGSAVVTRGDECGLALGRLASIVEQVSVLQNQGREMMLVTSGAVAFGKQRLRHEILLSQSVRQALHSGQNQLKEMAIPVLEARACAAAGQSGLMALYEAMFTQYSICAAQILVTNLDFHDEQKRRNLNGTLHELLRMNIVPIVNTNDAVVPPAEPNSDLQGVNVISVKDNDSLAARLAVEMKTDLLIVLSDVEGLFDSPPGSDDAKLIDIFYPGDQQSVTFGTKSRVGMGGMEAKVKAALWALQGGTSVVIANGTHPKVSGHVITDIVEGKKVGTFFSEVKPAGPTVEQQGEMARSGGRMLATLEPEQRAEIIHHLADLLTDQRDEILLANKKDLEEAEGRLAAPLLKRLSLSTSKLNSLAIGLRQIAASSQDSVGRVLRRTRIAKNLELEQVTVPIGVLLVIFESRPDCLPQVAALAIASGNGLLLKGGKEAAHSNRILHLLTQEALSIHGVKEAVQLVNTREEVEDLCRLDKMIDLIIPRGSSQLVRDIQKAAKGIPVMGHSEGICHMYVDSEASVDKVTRLVRDSKCEYPAACNALETLLIHRDLLRTPLFDQIIDMLRVEQVKIHAGPKFASYLTFSPSEVKSLRTEYGDLELCIEVVDNVQDAIDHIHKYGSSHTDVIVTEDENTAEFFLQHVDSACVFWNASTRFSDGYRFGLGAEVGISTSRIHARGPVGLEGLLTTKWLLRGKDHVVSDFSEHGSLKYLHENLPIPQRNTN
As for B1, the binding entry in assay [1] and in assay [2] was “binds” in each case.

B2: TMPO (protein, UniProt P42166 1-694)
chain: MPEFLEDPSVLTKDKLKSELVANNVTLPAGEQRKDVYVQLYLQHLTARNRPPLPAGTNSKGPPDFSSDEEREPTPVLGSGAAAAGRSRAAVGRKATKKTDKPRQEDKDDLDVTELTNEDLLDQLVKYGVNPGPIVGTTRKLYEKKLLKLREQGTESRSSTPLPTISSSAENTRQNGSNDSDRYSDNEEGKKKEHKKVKSTRDIVPFSELGTTPSGGGFFQGISFPEISTRPPLGSTELQAAKKVHTSKGDLPREPLVATNLPGRGQLQKLASERNLFISCKSSHDRCLEKSSSSSSQPEHSAMLVSTAASPSLIKETTTGYYKDIVENICGREKSGIQPLCPERSHISDQSPLSSKRKALEESESSQLISPPLAQAIRDYVNSLLVQGGVGSLPGTSNSMPPLDVENIQKRIDQSKFQETEFLSPPRKVPRLSEKSVEERDSGSFVAFQNIPGSELMSSFAKTVVSHSLTTLGLEVAKQSQHDKIDASELSFPFHESILKVIEEEWQQVDRQLPSLACKYPVSSREATQILSVPKVDDEILGFISEATPLGGIQAASTESCNQQLDLALCRAYEAAASALQIATHTAFVAKAMQADISQAAQILSSDPSRTHQALGILSKTYDAASYICEAAFDEVKMAAHTMGNATVGRRYLWLKDCKINLASKNKLASTPFKGGTLFGGEVCKVIKKRGNKH
With B2, the binding result in assay [1] and in assay [2] was “binds” in each case.

B3: SETMAR (protein, UniProt Q53H47 1-684)
chain: MFAEAAKTTRPCGMAEFKEKPEAPTEQLDVACGQENLPVGAWPPGAAPAPFQYTPDHVVGPGADIDPTQITFPGCICVKTPCLPGTCSCLRHGENYDDNSCLRDIGSGGKYAEPVFECNVLCRCSDHCRNRVVQKGLQFHFQVFKTHKKGWGLRTLEFIPKGRFVCEYAGEVLGFSEVQRRIHLQTKSDSNYIIAIREHVYNGQVMETFVDPTYIGNIGRFLNHSCEPNLLMIPVRIDSMVPKLALFAAKDIVPEEELSYDYSGRYLNLTVSEDKERLDHGKLRKPCYCGAKSCTAFLPFDSSLYCPVEKSNISCGNEKEPSMCGSAPSVFPSCKRLTLETMKMMLDKKQIRAIFLFEFKMGRKAAETTRNINNAFGPGTANERTVQWWFKKFCKGDESLEDEERSGRPSEVDNDQLRAIIEADPLTTTREVAEELNVNHSTVVRHLKQIGKVKKLDKWVPHELTENQKNRRFEVSSSLILRNHNEPFLDRIVTCDEKWILYDNRRRSAQWLDQEEAPKHFPKPILHPKKVMVTIWWSAAGLIHYSFLNPGETITSEKYAQEIDEMNQKLQRLQLALVNRKGPILLHDNARPHVAQPTLQKLNELGYEVLPHPPYSPDLLPTNYHVFKHLNNFLQGKRFHNQQDAENAFQEFVESQSTDFYATGINQLISRWQKCVDCNGSYFD
Take B3: the binding result in assay [1] and in assay [2] was “binds” in each case.

B4: TRIM11 (protein, UniProt Q96F44 1-468)
chain: MAAPDLSTNLQEEATCAICLDYFTDPVMTDCGHNFCRECIRRCWGQPEGPYACPECRELSPQRNLRPNRPLAKMAEMARRLHPPSPVPQGVCPAHREPLAAFCGDELRLLCAACERSGEHWAHRVRPLQDAAEDLKAKLEKSLEHLRKQMQDALLFQAQADETCVLWQKMVESQRQNVLGEFERLRRLLAEEEQQLLQRLEEEELEVLPRLREGAAHLGQQSAHLAELIAELEGRCQLPALGLLQDIKDALRRVQDVKLQPPEVVPMELRTVCRVPGLVETLRRFRGDVTLDPDTANPELILSEDRRSVQRGDLRQALPDSPERFDPGPCVLGQERFTSGRHYWEVEVGDRTSWALGVCRENVNRKEKGELSAGNGFWILVFLGSYYNSSERALAPLRDPPRRVGIFLDYEAGHLSFYSATDGSLLFIFPEIPFSGTLRPLFSPLSSSPTPMTICRPKGGSGDTLAPQ
Consider B4, for which the binding result in assay [1] and in assay [2] was “binds” each time.

B5: ORC2 (protein, UniProt Q13416 1-577)
chain: MSKPELKEDKMLEVHFVGDDDVLNHILDREGGAKLKKERAQLLVNPKKIIKKPEYDLEEDDQEVLKDQNYVEIMGRDVQESLKNGSATGGGNKVYSFQNRKHSEKMAKLASELAKTPQKSVSFSLKNDPEITINVPQSSKGHSASDKVQPKNNDKSEFLSTAPRSLRKRLIVPRSHSDSESEYSASNSEDDEGVAQEHEEDTNAVIFSQKIQAQNRVVSAPVGKETPSKRMKRDKTSDLVEEYFEAHSSSKVLTSDRTLQKLKRAKLDQQTLRNLLSKVSPSFSAELKQLNQQYEKLFHKWMLQLHLGFNIVLYGLGSKRDLLERFRTTMLQDSIHVVINGFFPGISVKSVLNSITEEVLDHMGTFRSILDQLDWIVNKFKEDSSLELFLLIHNLDSQMLRGEKSQQIIGQLSSLHNIYLIASIDHLNAPLMWDHAKQSLFNWLWYETTTYSPYTEETSYENSLLVKQSGSLPLSSLTHVLRSLTPNARGIFRLLIKYQLDNQDNPSYIGLSFQDFYQQCREAFLVNSDLTLRAQLTEFRDHKLIRTKKGTDGVEYLLIPVDNGTLTDFLEKEEEEA
B5: the binding result in assay [1] and in assay [2] was “binds” each time.
